The values that follow come from article PMC7073468, “Small RNA‐binding protein RapZ mediates cell envelope precursor sensing and signaling in Escherichia coli” (The EMBO Journal, 2020).

Results are given in words; binding and its absence hold for the method and conditions named. Some entries that bind do so weakly or less than the wild type. Tags and fused reporters may be left off the sequences shown.

The target in assay [1] is T1, RapZ Asp182Ala (full-length), BACTH fusion (Escherichia coli) (UniProt P0A894).
T1 sequence: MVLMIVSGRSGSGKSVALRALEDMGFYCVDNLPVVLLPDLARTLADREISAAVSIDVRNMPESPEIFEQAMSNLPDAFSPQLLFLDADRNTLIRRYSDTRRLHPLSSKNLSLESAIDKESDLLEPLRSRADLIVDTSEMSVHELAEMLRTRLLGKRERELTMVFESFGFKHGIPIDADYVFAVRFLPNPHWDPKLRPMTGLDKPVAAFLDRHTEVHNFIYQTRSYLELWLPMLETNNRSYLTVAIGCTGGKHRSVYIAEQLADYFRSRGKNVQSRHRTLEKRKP
Briefly: two-hybrid; bacterial adenylate cyclase-based two-hybrid (BACTH); T18 and T25 fusions from pUT18C and pKT25 derivatives in E. coli reporter strain RH785 (MG1655::cyaA derivative) or BTH101, also in a derivative lacking the endogenous qseEGF operon; grown at 28°C with 1 mM IPTG to stationary phase; read-out β-galactosidase activity.

Assay [2] concerns the target T2, RapZ, BACTH fusion (T18 or T25) (Escherichia coli) (UniProt P0A894).
T2 sequence: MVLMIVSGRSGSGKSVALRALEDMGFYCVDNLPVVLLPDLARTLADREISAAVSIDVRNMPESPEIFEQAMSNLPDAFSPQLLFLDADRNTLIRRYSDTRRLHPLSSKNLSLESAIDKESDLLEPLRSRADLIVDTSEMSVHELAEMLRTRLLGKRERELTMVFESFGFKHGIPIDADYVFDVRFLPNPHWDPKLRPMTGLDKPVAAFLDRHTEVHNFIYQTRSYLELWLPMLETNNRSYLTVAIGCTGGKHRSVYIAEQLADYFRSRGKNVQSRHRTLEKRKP
Described as above.

B1: QseF, BACTH fusion (T18 or T25) (protein, UniProt P0AFU4 1-444)
chain: MSHKPAHLLLVDDDPGLLKLLGLRLTSEGYSVVTAESGAEGLRVLNREKVDLVISDLRMDEMDGMQLFAEIQKVQPGMPVIILTAHGSIPDAVAATQQGVFSFLTKPVDKDALYQAIDDALEQSAPATDERWREAIVTRSPLMLRLLEQARLVAQSDVSVLINGQSGTGKEIFAQAIHNASPRNSKPFIAINCGALPEQLLESELFGHARGAFTGAVSNREGLFQAAEGGTLFLDEIGDMPAPLQVKLLRVLQERKVRPLGSNRDIDINVRIISATHRDLPKAMARGEFREDLYYRLNVVSLKIPALAERTEDIPLLANHLLRQAAERHKPFVRAFSTDAMKRLMTASWPGNVRQLVNVIEQCVALTSSPVISDALVEQALEGENTALPTFVEARNQFELNYLRKLLQITKGNVTHAARMAGRNRTEFYKLLSRHELDANDFKE
As to B1, the binding result was “no binding” in assay [1] and “binds” in assay [2].

B2: QseE, BACTH fusion (T18 or T25) (protein, UniProt P52101 1-475)
chain: MKRWPVFPRSLRQLVMLAFLLILLPLLVLAWQAWQSLNALSDQAALVNRTTLIDARRSEAMTNAALEMERSYRQYCVLDDPTLAKVYQSQRKRYSEMLDAHAGVLPDDKLYQALRQDLHNLAQLQCNNSGPDAAAAARLEAFASANTEMVQATRTVVFSRGQQLQREIAERGQYFGWQSLVLFLVSLVMVLLFTRMIIGPVKNIERMINRLGEGRSLGNSVSFSGPSELRSVGQRILWLSERLSWLESQRHQFLRHLSHELKTPLASMREGTELLADQVVGPLTPEQKEVVSILDSSSRNLQKLIEQLLDYNRKQADSAVELENVELAPLVETVVSAHSLPARAKMMHTDVDLKATACLAEPMLLMSVLDNLYSNAVHYGAESGNICLRSSLHGARVYIDVINTGTPIPQEERAMIFEPFFQGSHQRKGAVKGSGLGLSIARDCIRRMQGELYLVDESGQDVCFRIELPSSKNTK
Take B2: the binding entry in assay [1] is reported as “no binding”; in assay [2], “binds”.
